US6403561B1, “Tripeptidylpeptidase inhibitors” (Institut National de la Sante et de la Recherche Medicale …, priority 1998, dated 2002)
pKi: −log10 of the molar value. The match of structure and compound is tentative.

Chains of the proteins cited; added tags and fusions are not shown.
UniProt Q64560, whole entry: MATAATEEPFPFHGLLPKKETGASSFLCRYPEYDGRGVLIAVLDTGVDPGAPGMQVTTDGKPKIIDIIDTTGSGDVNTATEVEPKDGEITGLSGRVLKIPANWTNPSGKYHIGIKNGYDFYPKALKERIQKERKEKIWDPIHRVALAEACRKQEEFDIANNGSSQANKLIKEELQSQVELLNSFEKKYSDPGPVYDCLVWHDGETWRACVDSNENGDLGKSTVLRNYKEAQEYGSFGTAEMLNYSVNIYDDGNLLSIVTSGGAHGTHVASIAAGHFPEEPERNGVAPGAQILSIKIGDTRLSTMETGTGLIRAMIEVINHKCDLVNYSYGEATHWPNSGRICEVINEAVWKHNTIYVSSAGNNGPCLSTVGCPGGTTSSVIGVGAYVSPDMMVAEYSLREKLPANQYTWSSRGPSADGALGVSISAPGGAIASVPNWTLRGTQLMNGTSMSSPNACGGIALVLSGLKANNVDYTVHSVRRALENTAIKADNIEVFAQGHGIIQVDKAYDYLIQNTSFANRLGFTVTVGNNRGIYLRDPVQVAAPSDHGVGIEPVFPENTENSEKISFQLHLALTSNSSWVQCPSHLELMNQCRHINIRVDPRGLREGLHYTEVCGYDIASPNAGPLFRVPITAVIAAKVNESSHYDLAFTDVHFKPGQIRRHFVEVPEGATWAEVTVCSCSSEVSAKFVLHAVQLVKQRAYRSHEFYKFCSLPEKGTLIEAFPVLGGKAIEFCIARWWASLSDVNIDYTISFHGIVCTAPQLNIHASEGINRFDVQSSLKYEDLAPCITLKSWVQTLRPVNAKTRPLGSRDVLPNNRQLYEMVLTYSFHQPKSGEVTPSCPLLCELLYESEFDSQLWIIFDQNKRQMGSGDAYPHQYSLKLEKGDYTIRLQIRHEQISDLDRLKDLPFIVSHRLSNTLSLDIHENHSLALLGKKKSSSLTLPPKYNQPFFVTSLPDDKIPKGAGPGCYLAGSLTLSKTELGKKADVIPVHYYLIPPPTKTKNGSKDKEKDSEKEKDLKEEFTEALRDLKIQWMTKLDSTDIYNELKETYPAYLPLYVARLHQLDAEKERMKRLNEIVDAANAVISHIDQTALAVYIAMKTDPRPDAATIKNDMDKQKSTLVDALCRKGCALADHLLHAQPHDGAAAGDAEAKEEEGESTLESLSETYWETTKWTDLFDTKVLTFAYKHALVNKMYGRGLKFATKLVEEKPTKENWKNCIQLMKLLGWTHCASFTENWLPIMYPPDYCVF

Molecular target: membrane-bound tripeptidylpeptidase II (Rattus norvegicus, UniProt Q64560)
Experiment: Measurement of the activity of membrane-bound tripeptidylpeptidase (release of Amc from A-AP-Amc, fluorimetry)
Settings: apparent dissociation constant calculated from the 50% inhibitory concentration and the KM of the substrate (23 μM); rat brain membranes, 50 μM A-AP-Amc

pKi | Compound
8.52 | CCCCNC(=O)[C@@H]1Cc2cc(F)ccc2N1C(=O)[C@@H](N)CC
6.63 | CCCCNC(=O)[C@H]1Cc2cc(F)ccc2N1C(=O)[C@@H](N)CC
